PubChem BioAssay AID1259254, NCATS | 2017
The whole screen tested about 59,000 reagents; this is a random part of them. Of all reagents, about 1,550 (2.6%) are marked active. 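G2 share is only a proxy for re-replication; each gene was hit by three separate siRNAs, and active genes were retested.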 Raw values are not corrected between plates. Reagents against one gene are numbered here. Reagent sequences are not shown. Not stated in the record: the amount of reagent.

Test: 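Gene knock-downs that lead to re-replication, shown by excess G2 DNA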 (primary screen)
Cell system: human HCT116 colorectal cancer cells
Knock-down reagent: single siRNA against human genes
Time to read-out: 3 days
Read-out: 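Imaged Hoechst DNA stain sorts each cell into a cycle phase by DNA amount; per plate, G2 fraction set to 0% for non-targeting and 100% for GMNN siRNA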
Direction: G2 robust z-score and G2 cells, % of GMNN control: higher = more G2 cells, more excess DNA replication; raw share of cells in G2: higher = larger share of cells with G2 DNA content
Call rule: 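Active siRNAs have a G2 robust z of 5 or more median absolute deviations over the median, which in these data means about 38% or higher of GMNN control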

| gene | reagent | G2 robust z-score | G2 cells, % of GMNN control | raw share of cells in G2 (%) | Outcome |
| --- | --- | --- | --- | --- | --- |
| IDO1 (GeneID 3620) | 1 | 0.576 | 7.02 | 8.36 | inactive |
| IDO1 (GeneID 3620) | 2 | 0.656 | 7.58 | 7.8 | inactive |
| IDO1 (GeneID 3620) | 3 | 0.0933 | 3.62 | 5.53 | inactive |
| ZACN (GeneID 353174) | 1 | 0.174 | 4.19 | 7.71 | inactive |
| ZACN (GeneID 353174) | 2 | 1.99 | 16.9 | 11.6 | inactive |
| ZACN (GeneID 353174) | 3 | -0.0497 | 2.62 | 5.24 | inactive |
| CASP16P (GeneID 197350) | 1 | 0.238 | 4.64 | 4.23 | inactive |
| CASP16P (GeneID 197350) | 2 | 0.129 | 3.88 | 4.99 | inactive |
| CASP16P (GeneID 197350) | 3 | -0.333 | 0.622 | 3.17 | inactive |
| DEUP1 (GeneID 159989) | 1 | -0.668 | -1.73 | 2.98 | inactive |
| DEUP1 (GeneID 159989) | 2 | -0.486 | -0.453 | 2.81 | inactive |
| DEUP1 (GeneID 159989) | 3 | 1.05 | 10.4 | 6.04 | inactive |
| PCSK4 (GeneID 54760) | 1 | 2.55 | 20.9 | 12.9 | inactive |
| PCSK4 (GeneID 54760) | 2 | -0.0801 | 2.4 | 5.76 | inactive |
| PCSK4 (GeneID 54760) | 3 | -0.592 | -1.2 | 3.46 | inactive |
| SNRPN (GeneID 6638) | 1 | -1.2 | -5.48 | 3.84 | inactive |
| SNRPN (GeneID 6638) | 2 | -0.701 | -1.97 | 3.87 | inactive |
| SNRPN (GeneID 6638) | 3 | 0.282 | 4.95 | 5.6 | inactive |
| SNRPN (GeneID 6638) | 4 | 0.376 | 5.61 | 5.89 | inactive |
| SNRPN (GeneID 6638) | 5 | -0.298 | 0.871 | 3.55 | inactive |
| SNRPN (GeneID 6638) | 6 | 0.116 | 3.78 | 4.24 | inactive |
| SNRPN (GeneID 6638) | 7 | 3.12 | 24.9 | 13.2 | inactive |
| SNRPN (GeneID 6638) | 8 | 0.0642 | 3.42 | 4.49 | inactive |
| SNRPN (GeneID 6638) | 9 | -0.0329 | 2.74 | 3.91 | inactive |
| ACP6 (GeneID 51205) | 1 | -1.28 | -6.03 | 2.84 | inactive |
| ACP6 (GeneID 51205) | 2 | 0.082 | 3.54 | 5.37 | inactive |
| ACP6 (GeneID 51205) | 3 | -0.606 | -1.3 | 3.11 | inactive |
| KIF2C (GeneID 11004) | 1 | -0.162 | 1.83 | 4.43 | inactive |
| KIF2C (GeneID 11004) | 2 | -1.22 | -5.6 | 3.26 | inactive |
| KIF2C (GeneID 11004) | 3 | -0.486 | -0.454 | 6.3 | inactive |

Look-ups from the entries so far.
For “G2 robust z-score”, ACP6 (GeneID 51205) #2 is entered as 0.082
CASP16P (GeneID 197350) #1, G2 cells, % of GMNN control: 4.64
SNRPN (GeneID 6638) #7, G2 robust z-score → 3.12

More records follow:
| gene | reagent | G2 robust z-score | G2 cells, % of GMNN control | raw share of cells in G2 (%) | Outcome |
| --- | --- | --- | --- | --- | --- |
| MIEN1 (GeneID 84299) | 1 | -0.172 | 1.76 | 2.94 | inactive |
| MIEN1 (GeneID 84299) | 2 | 0.408 | 5.83 | 6.05 | inactive |
| MIEN1 (GeneID 84299) | 3 | -0.0665 | 2.5 | 4.2 | inactive |
| PHF6 (GeneID 84295) | 1 | 1.88 | 16.2 | 12.2 | inactive |
| PHF6 (GeneID 84295) | 2 | 1.77 | 15.4 | 9.77 | inactive |
| PHF6 (GeneID 84295) | 3 | -0.88 | -3.23 | 3.59 | inactive |
| PAN2 (GeneID 9924) | 1 | 1.02 | 10.1 | 9.09 | inactive |
| PAN2 (GeneID 9924) | 2 | 0.108 | 3.72 | 6.23 | inactive |
| PAN2 (GeneID 9924) | 3 | -0.584 | -1.14 | 3.48 | inactive |
| MIR2052HG (GeneID 441355) | 1 | 0.266 | 4.84 | 4.76 | inactive |
| MIR2052HG (GeneID 441355) | 2 | 0.552 | 6.85 | 6.27 | inactive |
| MIR2052HG (GeneID 441355) | 3 | 2.51 | 20.6 | 11.2 | inactive |
| FBXO43 (GeneID 286151) | 1 | 1.2 | 11.4 | 7.8 | inactive |
| FBXO43 (GeneID 286151) | 2 | 0.082 | 3.54 | 4.41 | inactive |
| FBXO43 (GeneID 286151) | 3 | -0.899 | -3.36 | 2.25 | inactive |
| PRMT5 (GeneID 10419) | 1 | 1.18 | 11.3 | 7.5 | inactive |
| PRMT5 (GeneID 10419) | 2 | -1.27 | -5.93 | 4.14 | inactive |
| PRMT5 (GeneID 10419) | 3 | -0.606 | -1.3 | 5.13 | inactive |
| TMPO (GeneID 7112) | 1 | -0.277 | 1.02 | 5.66 | inactive |
| TMPO (GeneID 7112) | 2 | 1.86 | 16.1 | 10.2 | inactive |
| TMPO (GeneID 7112) | 3 | -0.138 | 2 | 5.15 | inactive |
| RNF212 (GeneID 285498) | 1 | -0.299 | 0.863 | 3.96 | inactive |
| RNF212 (GeneID 285498) | 2 | 0.769 | 8.38 | 6.29 | inactive |
| RNF212 (GeneID 285498) | 3 | -0.785 | -2.56 | 2.49 | inactive |
| SPOP (GeneID 8405) | 1 | -0.377 | 0.317 | 3.63 | inactive |
| SPOP (GeneID 8405) | 2 | 2.06 | 17.4 | 13.8 | inactive |
| SPOP (GeneID 8405) | 3 | -0.206 | 1.51 | 3.97 | inactive |
| DCTN3 (GeneID 11258) | 1 | 0.806 | 8.64 | 8.37 | inactive |
| DCTN3 (GeneID 11258) | 2 | 2.63 | 21.4 | 13 | inactive |
| DCTN3 (GeneID 11258) | 3 | 0.556 | 6.88 | 5.75 | inactive |
| CIB4 (GeneID 130106) | 1 | 0.0739 | 3.49 | 6.67 | inactive |
| CIB4 (GeneID 130106) | 2 | 2.65 | 21.6 | 13.1 | inactive |
| CIB4 (GeneID 130106) | 3 | 0.965 | 9.76 | 6.81 | inactive |
| KRTAP9-1 (GeneID 728318) | 1 | 1.82 | 15.8 | 8.43 | inactive |
| KRTAP9-1 (GeneID 728318) | 2 | -0.476 | -0.385 | 3.45 | inactive |
| KRTAP9-1 (GeneID 728318) | 3 | -0.786 | -2.56 | 2.57 | inactive |
| TMCO5A (GeneID 145942) | 1 | 3.15 | 25.1 | 12.2 | inactive |
| TMCO5A (GeneID 145942) | 2 | 1.63 | 14.4 | 7.37 | inactive |
| TMCO5A (GeneID 145942) | 3 | -0.514 | -0.65 | 2.84 | inactive |
